# According to the supplement of paper PMC12067093, “Discovery and optimisation of a covalent ligand for TRIM25 and its application to targeted protein ubiquitination” (Chemical Science, 2025):
# Protein sequences, listed by entry. Tags and fused reporters are not part of them. Lines headed by an entry give the natural chain unless they say otherwise; changes in a name come on top.
# UniProt Q16875: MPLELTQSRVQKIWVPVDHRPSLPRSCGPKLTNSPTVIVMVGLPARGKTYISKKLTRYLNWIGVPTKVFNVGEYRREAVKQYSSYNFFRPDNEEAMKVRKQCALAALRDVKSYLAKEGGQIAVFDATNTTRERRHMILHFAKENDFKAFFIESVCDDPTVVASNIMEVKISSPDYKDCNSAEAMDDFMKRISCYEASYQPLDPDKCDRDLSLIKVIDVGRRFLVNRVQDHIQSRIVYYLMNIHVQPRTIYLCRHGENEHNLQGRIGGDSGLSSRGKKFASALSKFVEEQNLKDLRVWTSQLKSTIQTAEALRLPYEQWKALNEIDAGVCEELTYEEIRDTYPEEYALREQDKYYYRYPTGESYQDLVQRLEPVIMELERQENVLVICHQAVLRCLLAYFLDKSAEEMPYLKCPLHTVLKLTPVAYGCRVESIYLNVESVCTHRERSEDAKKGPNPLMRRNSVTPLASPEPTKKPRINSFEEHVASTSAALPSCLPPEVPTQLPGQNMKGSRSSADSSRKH
# UniProt Q9BRB3: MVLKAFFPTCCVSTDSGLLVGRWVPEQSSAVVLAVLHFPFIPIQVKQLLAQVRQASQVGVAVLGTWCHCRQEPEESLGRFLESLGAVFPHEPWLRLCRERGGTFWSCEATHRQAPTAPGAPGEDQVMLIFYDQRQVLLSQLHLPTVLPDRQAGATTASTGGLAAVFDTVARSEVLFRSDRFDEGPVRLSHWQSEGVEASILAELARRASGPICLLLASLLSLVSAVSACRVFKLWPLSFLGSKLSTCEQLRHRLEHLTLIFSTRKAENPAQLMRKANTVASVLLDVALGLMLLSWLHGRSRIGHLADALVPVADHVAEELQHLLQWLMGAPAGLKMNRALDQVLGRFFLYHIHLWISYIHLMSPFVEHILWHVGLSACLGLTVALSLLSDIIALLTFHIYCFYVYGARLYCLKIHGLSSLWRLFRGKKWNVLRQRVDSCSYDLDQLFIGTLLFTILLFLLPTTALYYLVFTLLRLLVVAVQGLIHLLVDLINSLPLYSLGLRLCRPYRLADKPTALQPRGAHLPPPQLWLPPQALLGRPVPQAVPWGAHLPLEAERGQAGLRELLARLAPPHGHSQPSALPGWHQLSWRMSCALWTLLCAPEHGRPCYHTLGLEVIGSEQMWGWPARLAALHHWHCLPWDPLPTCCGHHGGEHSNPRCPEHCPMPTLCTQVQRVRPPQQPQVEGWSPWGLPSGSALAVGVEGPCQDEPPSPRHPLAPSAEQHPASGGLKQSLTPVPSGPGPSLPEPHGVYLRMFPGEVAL
# UniProt P18669: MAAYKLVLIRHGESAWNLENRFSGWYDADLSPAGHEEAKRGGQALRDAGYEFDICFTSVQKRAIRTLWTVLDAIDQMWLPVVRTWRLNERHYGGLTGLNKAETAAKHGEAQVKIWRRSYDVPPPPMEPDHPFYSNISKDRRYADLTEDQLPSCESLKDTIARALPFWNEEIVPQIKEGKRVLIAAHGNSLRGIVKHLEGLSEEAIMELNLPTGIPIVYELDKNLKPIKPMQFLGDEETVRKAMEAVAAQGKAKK
# UniProt O96011: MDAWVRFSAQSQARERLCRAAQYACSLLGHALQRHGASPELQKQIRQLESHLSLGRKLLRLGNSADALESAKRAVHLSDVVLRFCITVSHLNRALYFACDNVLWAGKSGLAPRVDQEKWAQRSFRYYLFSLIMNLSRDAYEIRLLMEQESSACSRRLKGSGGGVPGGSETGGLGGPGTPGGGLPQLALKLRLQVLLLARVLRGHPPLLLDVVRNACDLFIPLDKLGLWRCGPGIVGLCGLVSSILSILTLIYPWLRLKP
# UniProt Q8IUZ5: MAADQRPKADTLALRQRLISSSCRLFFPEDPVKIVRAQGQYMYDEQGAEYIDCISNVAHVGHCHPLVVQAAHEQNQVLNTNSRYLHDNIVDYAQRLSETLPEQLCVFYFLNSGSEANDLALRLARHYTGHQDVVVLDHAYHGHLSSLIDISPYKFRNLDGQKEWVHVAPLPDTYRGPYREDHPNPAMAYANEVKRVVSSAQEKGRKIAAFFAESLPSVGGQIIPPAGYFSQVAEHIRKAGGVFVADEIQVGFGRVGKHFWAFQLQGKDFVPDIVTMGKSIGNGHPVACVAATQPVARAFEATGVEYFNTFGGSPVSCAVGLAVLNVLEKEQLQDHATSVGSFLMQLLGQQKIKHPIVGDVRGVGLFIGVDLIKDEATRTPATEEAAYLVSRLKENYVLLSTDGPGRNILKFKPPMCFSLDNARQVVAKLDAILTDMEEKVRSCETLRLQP
# UniProt Q8IWS0: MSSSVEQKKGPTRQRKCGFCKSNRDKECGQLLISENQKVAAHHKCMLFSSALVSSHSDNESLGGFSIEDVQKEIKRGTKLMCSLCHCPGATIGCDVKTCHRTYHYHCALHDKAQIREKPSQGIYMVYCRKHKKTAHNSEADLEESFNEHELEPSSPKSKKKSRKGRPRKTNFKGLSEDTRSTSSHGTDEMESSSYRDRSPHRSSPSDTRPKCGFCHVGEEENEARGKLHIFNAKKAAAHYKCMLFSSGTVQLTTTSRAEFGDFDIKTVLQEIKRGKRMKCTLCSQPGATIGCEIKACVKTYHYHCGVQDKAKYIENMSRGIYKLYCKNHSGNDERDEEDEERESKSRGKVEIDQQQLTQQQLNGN
# UniProt P46020: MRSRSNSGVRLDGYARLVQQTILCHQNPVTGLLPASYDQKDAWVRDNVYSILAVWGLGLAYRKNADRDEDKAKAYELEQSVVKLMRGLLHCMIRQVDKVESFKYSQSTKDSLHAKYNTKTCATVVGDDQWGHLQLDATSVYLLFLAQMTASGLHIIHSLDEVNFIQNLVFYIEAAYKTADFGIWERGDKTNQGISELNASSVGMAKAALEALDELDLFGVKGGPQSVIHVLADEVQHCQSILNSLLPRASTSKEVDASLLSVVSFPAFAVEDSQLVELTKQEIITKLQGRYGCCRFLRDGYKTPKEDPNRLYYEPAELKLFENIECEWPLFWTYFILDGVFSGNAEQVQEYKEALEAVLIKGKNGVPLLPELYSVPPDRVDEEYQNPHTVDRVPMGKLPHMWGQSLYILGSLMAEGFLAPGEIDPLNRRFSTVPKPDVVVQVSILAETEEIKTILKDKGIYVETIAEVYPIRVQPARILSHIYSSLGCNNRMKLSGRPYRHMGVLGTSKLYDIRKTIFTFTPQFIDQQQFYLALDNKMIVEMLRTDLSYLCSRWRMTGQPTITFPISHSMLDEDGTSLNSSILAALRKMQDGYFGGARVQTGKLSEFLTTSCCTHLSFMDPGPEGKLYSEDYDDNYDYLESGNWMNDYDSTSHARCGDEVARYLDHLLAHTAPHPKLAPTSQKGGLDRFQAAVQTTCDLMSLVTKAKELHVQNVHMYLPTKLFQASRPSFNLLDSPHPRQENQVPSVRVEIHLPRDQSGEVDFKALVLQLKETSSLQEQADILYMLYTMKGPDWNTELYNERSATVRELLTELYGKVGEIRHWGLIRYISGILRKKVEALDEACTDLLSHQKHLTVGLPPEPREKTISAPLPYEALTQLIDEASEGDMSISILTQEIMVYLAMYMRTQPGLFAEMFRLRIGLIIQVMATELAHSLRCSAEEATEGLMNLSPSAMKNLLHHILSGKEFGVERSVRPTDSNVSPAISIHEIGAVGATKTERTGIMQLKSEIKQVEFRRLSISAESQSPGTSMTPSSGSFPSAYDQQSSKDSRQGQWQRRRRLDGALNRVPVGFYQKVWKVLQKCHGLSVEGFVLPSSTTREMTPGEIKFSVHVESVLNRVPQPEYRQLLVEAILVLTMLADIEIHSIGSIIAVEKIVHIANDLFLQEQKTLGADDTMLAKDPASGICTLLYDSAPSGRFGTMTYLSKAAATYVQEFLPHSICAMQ
# UniProt P00558: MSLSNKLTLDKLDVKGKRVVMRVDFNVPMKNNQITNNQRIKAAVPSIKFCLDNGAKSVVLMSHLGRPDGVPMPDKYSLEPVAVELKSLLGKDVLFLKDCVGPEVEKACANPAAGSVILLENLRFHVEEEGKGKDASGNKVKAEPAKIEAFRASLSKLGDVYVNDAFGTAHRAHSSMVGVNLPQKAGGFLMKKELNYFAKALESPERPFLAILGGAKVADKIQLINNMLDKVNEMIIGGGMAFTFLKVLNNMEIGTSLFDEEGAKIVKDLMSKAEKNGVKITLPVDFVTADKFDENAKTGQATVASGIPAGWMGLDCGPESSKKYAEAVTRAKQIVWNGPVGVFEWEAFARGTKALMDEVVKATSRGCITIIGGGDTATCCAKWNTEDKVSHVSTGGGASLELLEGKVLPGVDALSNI
# UniProt O75925, whole entry, looked up: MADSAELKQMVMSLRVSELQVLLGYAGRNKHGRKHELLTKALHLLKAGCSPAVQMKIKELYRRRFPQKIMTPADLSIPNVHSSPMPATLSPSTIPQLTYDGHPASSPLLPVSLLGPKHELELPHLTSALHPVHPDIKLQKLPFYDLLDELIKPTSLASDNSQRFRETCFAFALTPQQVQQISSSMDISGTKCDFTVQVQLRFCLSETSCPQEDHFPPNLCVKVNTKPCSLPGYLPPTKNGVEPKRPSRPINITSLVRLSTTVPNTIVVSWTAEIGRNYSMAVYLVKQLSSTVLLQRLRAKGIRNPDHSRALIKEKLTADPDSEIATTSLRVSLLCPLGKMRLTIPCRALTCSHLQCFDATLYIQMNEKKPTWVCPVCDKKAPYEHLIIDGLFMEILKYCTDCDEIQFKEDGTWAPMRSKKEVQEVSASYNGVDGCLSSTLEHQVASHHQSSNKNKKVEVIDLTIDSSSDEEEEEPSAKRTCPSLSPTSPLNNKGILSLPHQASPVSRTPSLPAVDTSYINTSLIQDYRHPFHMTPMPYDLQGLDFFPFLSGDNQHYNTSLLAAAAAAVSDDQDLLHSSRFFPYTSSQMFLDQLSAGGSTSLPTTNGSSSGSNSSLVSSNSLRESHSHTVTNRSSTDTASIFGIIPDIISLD
# UniProt Q8IZL8: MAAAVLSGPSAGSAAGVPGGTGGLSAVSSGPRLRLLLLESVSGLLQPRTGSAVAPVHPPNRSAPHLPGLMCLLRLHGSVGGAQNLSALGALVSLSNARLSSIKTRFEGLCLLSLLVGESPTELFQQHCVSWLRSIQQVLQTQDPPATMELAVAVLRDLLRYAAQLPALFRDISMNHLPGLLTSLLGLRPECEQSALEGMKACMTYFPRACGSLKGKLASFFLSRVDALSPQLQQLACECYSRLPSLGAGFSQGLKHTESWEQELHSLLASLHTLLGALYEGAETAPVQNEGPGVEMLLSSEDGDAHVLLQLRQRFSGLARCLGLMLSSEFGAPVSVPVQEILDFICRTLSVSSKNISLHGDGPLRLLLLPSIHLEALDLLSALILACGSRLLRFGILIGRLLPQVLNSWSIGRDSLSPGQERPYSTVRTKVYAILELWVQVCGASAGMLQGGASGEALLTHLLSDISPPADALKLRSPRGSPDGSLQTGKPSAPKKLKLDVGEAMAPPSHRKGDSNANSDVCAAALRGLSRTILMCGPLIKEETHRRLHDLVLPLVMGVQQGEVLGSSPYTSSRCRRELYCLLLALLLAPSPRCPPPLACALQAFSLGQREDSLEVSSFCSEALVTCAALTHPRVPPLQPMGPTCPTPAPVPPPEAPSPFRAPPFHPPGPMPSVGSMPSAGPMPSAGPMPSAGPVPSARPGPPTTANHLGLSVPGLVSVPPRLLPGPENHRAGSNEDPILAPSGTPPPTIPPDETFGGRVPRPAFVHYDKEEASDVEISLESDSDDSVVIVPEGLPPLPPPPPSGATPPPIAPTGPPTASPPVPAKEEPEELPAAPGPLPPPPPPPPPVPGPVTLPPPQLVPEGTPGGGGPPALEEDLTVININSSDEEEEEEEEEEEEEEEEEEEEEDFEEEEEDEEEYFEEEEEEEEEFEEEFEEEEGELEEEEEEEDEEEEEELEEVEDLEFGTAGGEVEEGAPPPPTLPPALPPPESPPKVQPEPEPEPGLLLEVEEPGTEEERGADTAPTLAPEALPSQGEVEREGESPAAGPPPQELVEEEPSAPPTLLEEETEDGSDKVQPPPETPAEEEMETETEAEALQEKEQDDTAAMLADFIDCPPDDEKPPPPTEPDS
# UniProt O00764: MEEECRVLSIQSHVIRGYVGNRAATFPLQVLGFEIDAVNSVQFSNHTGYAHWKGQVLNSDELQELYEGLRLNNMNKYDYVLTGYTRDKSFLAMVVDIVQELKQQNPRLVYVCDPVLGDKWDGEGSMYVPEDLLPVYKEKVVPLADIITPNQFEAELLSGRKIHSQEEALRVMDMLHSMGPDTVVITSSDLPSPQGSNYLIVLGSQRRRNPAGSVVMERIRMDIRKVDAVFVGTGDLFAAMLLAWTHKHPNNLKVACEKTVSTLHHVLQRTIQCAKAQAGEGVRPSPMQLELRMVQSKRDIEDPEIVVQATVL
# The list shows a part of the results.
# Compound: CC1Cc2ccccc2N1C(=O)C1CCCN(C1)C(=O)CCl (mixture of isomers) [TRIM25 ligand 11 (diastereomer mixture)]
# Experiment: probe-labelled cysteine peptide fold change vs DMSO (competition) (log2 fold change); higher = less target engagement (more negative = stronger competition)
# Settings: THP-1, incubation time: 4 h
# 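Note: competitive chemoproteomic profiling in live THP-1 cells with an iodoacetamide desthiobiotin (IA-DTB) probe, comparing probe-labelled peptide intensities in compound-treated cells against DMSO-treated controls.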
Target,probe-labelled cysteine peptide fold change (10 µM),probe-labelled cysteine peptide fold change (50 µM)
PFKFB3_Q16875_155_AFFIESVCDDPTVVASNIMEVK (UniProt Q16875),-0.0739,-0.0439
PIGQ_Q9BRB3_247_LSTCEQLR (UniProt Q9BRB3),0.07,-0.0172
PGAM1_P18669_153_RYADLTEDQLPSCESLK (UniProt P18669),-0.176,-0.215
PEX11B_O96011_18+25_LCRAAQYACSLLGHALQRHGASPELQK (UniProt O96011),-0.0919,-0.101
PHYKPL_Q8IUZ5_288_SIGNGHPVACVAATQPVAR (UniProt Q8IUZ5),0.23,0.0458
PHF6_Q8IWS0_212_CGFCHVGEEENEAR (UniProt Q8IWS0),0.072,0.162
PGM3_O95394_200_QASCSGDEYR (UniProt O95394),-0.00374,-0.097
PFKFB3_Q16875_427_LTPVAYGCR (UniProt Q16875),0.0292,0.22
PHKA1_P46020_844_KVEALDEACTDLLSHQK (UniProt P46020),-0.115,0.0948
PGK1_P00558_99_DCVGPEVEK (UniProt P00558),-0.0873,-0.0229
PIAS1_O75925_402_YCTDCDEIQFK (UniProt O75925),0.114,0.0387
PGAM1_P18669_55_DAGYEFDICFTSVQKR (UniProt P18669),-0.122,-0.0384
PELP1_Q8IZL8_522_KGDSNANSDVCAAALR (UniProt Q8IZL8),-0.159,-0.0633
PDXK_O00764_112_LVYVCDPVLGDK (UniProt O00764),0.194,0.079

# Shown with tabs: part of the list above
Target	probe-labelled cysteine peptide fold change (10 µM)	probe-labelled cysteine peptide fold change (50 µM)
PFKFB3_Q16875_155_AFFIESVCDDPTVVASNIMEVK (UniProt Q16875)	-0.0739	-0.0439
PHKA1_P46020_844_KVEALDEACTDLLSHQK (UniProt P46020)	-0.115	0.0948
